Data reported in the supplement of paper PMC4807443.
Structures can show the parent of a compound that is named as a salt. Some of the results follow. The numbers are fractions of the control, whatever unit the source prints. Most entries show no effect beyond the scatter of the controls.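 MIN6 is a mouse insulinoma beta-cell line that stably carries a lentiviral reporter in which the Pdx1 and Ins1 promoters each drive a nucleus-targeted fluorescent protein; cells were counted by automated imaging with a Hoechst nuclear stain. In the screen, a drug was a possible hit when its Ins1 promoter readout lay beyond two median absolute deviations from the DMSO controls while Pdx1 activity stayed near normal.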

System: MIN6
Experiment: % Pdx1+ Ins1+ (double-positive, mature) cells relative to DMSO control (fold of DMSO control); higher = more mature Ins1 promoter-active cells
Settings: 8.5 µM; 48 h; glucose 5 mM

Row | SMILES | % Pdx1+ Ins1+
1 | Cc1cc(CC(=O)O)n(C)c1C(=O)c1ccc(Cl)cc1 [Zomepirac sodium salt] | 0.896
2 | COc1ccc(C2CNC(=O)C2)cc1OC1CCCC1 (stereo not drawn) [Rolipram] | 0.951
3 | CC[N+]1(C)C2CCC1CC(OC(=O)C1CCC(C(=O)OC3CC4CCC(C3)[N+]4(C)CC)(c3ccccc3)c3ccccc31)C2 (stereo not drawn) [beta- Belladonnine dichloroethylate] | 0.94
4 | c1ccc2c3c([nH]c2c1)C1C2CCC(C4CCCNC42)N1CC3 (stereo not drawn) [Nitrarine dihydrochloride] | 0.864
5 | CN1CC[C@]23c4ccccc4N[C@H]1[C@]21CCN(C)[C@H]3Nc2ccccc21 [Calycanthine] | 0.913
6 | c1ccc([C@H]2CN3CCSC3=N2)cc1 [Levamisole hydrochloride] | 1.13
7 | CCC(=O)O[C@]1(C(=O)CCl)[C@@H](C)C[C@H]2[C@@H]3CCC4=CC(=O)C=C[C@]4(C)[C@@]3(F)[C@@H](O)C[C@@]21C [Clobetasol propionate] | 0.981
8 | O=C1C[C@@H](c2ccc(O)cc2)Oc2cc(O)cc(O)c21 [Naringenine] | 0.832
9 | O=S(=O)(O)c1cc(O)ccc1O [Ethamsylate] | 0.985
10 | CCOC(=O)Oc1c(OC)cc(C(=O)O[C@@H]2C[C@@H]3CN4CCc5c([nH]c6cc(OC)ccc56)[C@H]4C[C@@H]3[C@H](C(=O)OC)[C@H]2OC)cc1OC [Syrosingopine] | 0.731
11 | O=C1OCCN1/N=C/c1ccc([N+](=O)[O-])o1 [Furazolidone] | 0.99
12 | CN(C)c1nc(N(C)C)nc(N(C)C)n1 [Altretamine] | 1.02
13 | Nc1nc2n[nH]nc2c(=O)[nH]1 [Azaguanine-8] | 1.04
14 | CC(C)NCC(O)c1ccc2ccccc2c1 (stereo not drawn) [Pronethalol hydrochloride] | 0.974
15 | C[C@H]1C[C@@H]2[C@H]([C@@H](O)C[C@@]3(C)[C@H]2CC[C@]3(O)C(=O)CO)[C@@]2(C)C=CC(=O)C=C12 [Methylprednisolone, 6-alpha] | 1.02
16 | COc1cc([C@@H]2c3cc4c(cc3[C@@H](O[C@@H]3O[C@@H]5CO[C@@H](C)O[C@H]5[C@H](O)[C@H]3O)[C@H]3COC(=O)[C@H]23)OCO4)cc(OC)c1O [Etoposide] | 0.541
17 | CCCNCC(O)COc1ccccc1C(=O)CCc1ccccc1 (stereo not drawn) [Propafenone hydrochloride] | 0.876
18 | CC(=O)NC1[C@@H](O)OC(CO)[C@@H](O)[C@H]1O[C@H](C)C(=O)O (stereo in doubt) [Muramic acid, N-acetyl] | 0.977
19 | CC[C@]12CCCN3CCc4c(n(c5ccccc45)[C@](O)(C(=O)OC)C1)[C@@H]32 [Epivincamine] | 0.958
20 | CC(C)NC[C@@H](O)COc1cccc2ccccc12 [(R)-Propranolol hydrochloride] | 0.854
21 | CCN(CC)CCc1nc(-c2ccccc2)no1 [Oxalamine citrate salt] | 0.941
22 | CNCC(O)c1ccc(OC(=O)C(C)(C)C)c(OC(=O)C(C)(C)C)c1 (stereo not drawn) [Dipivefrin hydrochloride] | 0.84
23 | CC(NCCC(c1ccccc1)c1ccccc1)c1ccccc1 (stereo not drawn) [Fendiline hydrochloride] | 0.95
24 | Cc1c(N(C)CS(=O)(=O)O)c(=O)n(-c2ccccc2)n1C [Dipyrone] | 0.923
25 | CN(C)[C@@H]1C(O)=C(C(=O)NCN2CCCC2)C(=O)[C@@]2(O)C(O)=C3C(=O)c4c(O)cccc4[C@@](C)(O)[C@H]3C[C@@H]12 [Rolitetracycline] | 1.08

By substructure, the compounds so far with an aryl methoxy group (3)
Row | SMILES | % Pdx1+ Ins1+
2 | COc1ccc(C2CNC(=O)C2)cc1OC1CCCC1 (stereo not drawn) [Rolipram] | 0.951
10 | CCOC(=O)Oc1c(OC)cc(C(=O)O[C@@H]2C[C@@H]3CN4CCc5c([nH]c6cc(OC)ccc56)[C@H]4C[C@@H]3[C@H](C(=O)OC)[C@H]2OC)cc1OC [Syrosingopine] | 0.731
16 | COc1cc([C@@H]2c3cc4c(cc3[C@@H](O[C@@H]3O[C@@H]5CO[C@@H](C)O[C@H]5[C@H](O)[C@H]3O)[C@H]3COC(=O)[C@H]23)OCO4)cc(OC)c1O [Etoposide] | 0.541

Carrying on.

Row | SMILES | % Pdx1+ Ins1+
26 | Nc1cc(C(Cl)=C(Cl)Cl)c(S(N)(=O)=O)cc1S(N)(=O)=O [Clorsulon] | 0.843
27 | COc1c2occc2c(OC)c2c(=O)cc(C)oc12 [Khellin] | 1.12
28 | NNc1nncc2ccccc12 [Hydralazine hydrochloride] | 0.895
29 | C[C@H](CCC(=O)O)[C@H]1CC[C@H]2[C@@H]3[C@H](O)C[C@@H]4C[C@H](O)CC[C@]4(C)[C@H]3CC[C@]12C [Chenodiol] | 0.956
30 | CN1CCN(CCCN2c3ccccc3Sc3ccc(Cl)cc32)CC1 [Prochlorperazine dimaleate] | 0.81
31 | O=c1oc2ccccc2c(O)c1Cc1c(O)c2ccccc2oc1=O [Dicumarol] | 1.08
32 | NC(=O)N/N=C/c1ccc([N+](=O)[O-])o1 [Nitrofural] | 0.867
33 | CN1CCCCC1CCN1c2ccccc2Sc2ccc([S+](C)[O-])cc21 (stereo not drawn) [Mesoridazine besylate] | 1.04
34 | CCCC(=O)Nc1ncnc2c1ncn2[C@@H]1O[C@@H]2COP(=O)(O)O[C@H]2[C@H]1OC(=O)CCC [Bucladesine sodium salt] | 1.15
35 | CCN1CCN(C(=O)N[C@@H](C(=O)N[C@@H]2C(=O)N3[C@@H]2SC(C)(C)[C@@H]3C(=O)O)c2ccccc2)C(=O)C1=O [Piperacillin sodium salt] | 0.895
36 | CO[C@@H]1[C@@H](OC(N)=O)[C@@H](O)[C@H](Oc2ccc3c(O)c(NC(=O)c4ccc(O)c(CC=C(C)C)c4)c(=O)oc3c2C)OC1(C)C [Novobiocin sodium salt] | 0.887
37 | Cn1nnnc1SCC1=C(C(=O)O)N2C(=O)[C@@H](NC(=O)[C@H](O)c3ccccc3)[C@H]2SC1 [Cefamandole sodium salt] | 0.771
38 | COc1ccc(NS(=O)(=O)c2ccc(N)cc2)nn1 [Sulfamethoxypyridazine] | 0.867
39 | Nc1ccc(C(=O)NCC(=O)O)cc1 [Aminohippuric acid] | 0.936
40 | CC1(C)OC(=O)NC1=O [Dimethadione] | 0.928
41 | N=C(N)NCC1COC2(CCCCC2)O1 (stereo not drawn) [Guanadrel sulfate] | 0.856
42 | Nc1ccc(S(=O)(=O)c2ccc(N)cc2)cc1 [Dapsone] | 1.28
43 | OC[C@H]1O[C@@H](Oc2ccc(O)cc2)[C@H](O)[C@@H](O)[C@@H]1O [Arbutin] | 0.919
44 | OCCN1CCN(CCCN2c3ccccc3Sc3ccc(Cl)cc32)CC1 [Perphenazine] | 1.14
45 | COc1nc(C)nc(Cl)c1NC1=NCCN1 [Moxonidine] | 0.716
46 | COc1cc2nc(N3CCN(C(=O)c4ccco4)CC3)nc(N)c2cc1OC [Prazosin hydrochloride] | 0.97
47 | CCn1cc(C(=O)O)c(=O)c2cnc(N3CCNCC3)nc21 [Pipemidic acid] | 1.01
48 | O=c1c(O)c(-c2cc(O)c(O)c(O)c2)oc2cc(O)cc(O)c12 [Myricetin] | 0.858
49 | Cc1ccc(S(=O)(=O)NC(=O)NN2CC3CCCC3C2)cc1 (stereo not drawn) [Gliclazide] | 0.97
50 | COc1ccc(-c2cc(=O)c3c(O)cc(O)cc3o2)cc1 [Acacetin] | 0.825

Row | SMILES | % Pdx1+ Ins1+
51 | CC(=O)N[C@@H](CC(=O)N[C@@H](CCC(=O)O)C(=O)O)C(=O)O [Spaglumic acid] | 0.979
52 | Nc1c(O)cccc1C(=O)CC(N)C(=O)O (racemic) [Kynurenine, 3-hydroxy (R,S)] | 0.965
53 | COc1ccc2cc(CCC(C)=O)ccc2c1 [Nabumetone] | 0.98
54 | CCn1cc(C(=O)O)c(=O)c2ccc(C)nc21 [Nalidixic acid sodium salt hydrate] | 1.02
55 | C#CCN(C)Cc1ccccc1 [Pargyline hydrochloride] | 1.17
56 | CCN(CC)CCNC(=O)c1cc(S(C)(=O)=O)ccc1OC [Tiapride hydrochloride] | 1.14
57 | O=C(CCCN1CC=C(n2c(=O)[nH]c3ccccc32)CC1)c1ccc(F)cc1 [Droperidol] | 0.98
58 | CC(C)N1CCN(c2ccc(OCC3COC(Cn4cncn4)(c4ccc(Cl)cc4Cl)O3)cc2)CC1 (stereo not drawn) [Terconazole] | 0.955
59 | Cc1ncc([N+](=O)[O-])n1CCO [Metronidazole] | 1.12
60 | CCN(CC)CC#CCOC(=O)C(O)(c1ccccc1)C1CCCCC1 (stereo not drawn) [Oxybutynin chloride] | 1.12
61 | OC(CCN1CCCCC1)(c1ccccc1)C1CC2C=CC1C2 (stereo not drawn) [Biperiden hydrochloride] | 0.91
62 | O=C(NCCNCC(O)COc1ccc(O)cc1)N1CCOCC1 (stereo not drawn) [Xamoterol hemifumarate] | 0.956
63 | CCN(Cc1ccncc1)C(=O)C(CO)c1ccccc1 (stereo not drawn) [Tropicamide] | 1.09
64 | COc1ccc(C(=O)NCc2cccnc2)cc1C(=O)NCc1cccnc1 [Picotamide monohydrate] | 1.01
65 | NC[C@H]1O[C@H](O[C@H]2[C@H](O[C@@H]3O[C@H](CO)[C@@H](O)[C@H]3O)[C@@H](O)[C@H](N)C[C@@H]2N)[C@H](N)[C@@H](O)[C@@H]1O [Ribostamycin sulfate salt] | 1.02
66 | COc1ccc2[nH]cc(CCNC(C)=O)c2c1 [Melatonin] | 0.885
67 | CC[C@H]1OC(=O)[C@H](C)[C@@H](O[C@H]2C[C@@](C)(OC)[C@@H](O)[C@H](C)O2)[C@H](C)[C@@H](O[C@@H]2O[C@H](C)C[C@H](N(C)C)[C@H]2O)[C@](C)(O)C[C@@H](C)/C(=N\OCOCCOC)[C@H](C)[C@@H](O)[C@]1(C)O [Roxithromycin] | 0.923
68 | COc1c2ccoc2nc2c(OC)c(OCC(O)C(C)(C)O)ccc12 (stereo not drawn) [Evoxine] | 0.921
69 | Nc1nc(=O)c2nc(CNc3ccc(C(=O)N[C@@H](CCC(=O)O)C(=O)O)cc3)cnc2[nH]1 [Folic acid] | 0.852
70 | CC(=O)N[C@@H](CC(C)C)C(=O)O [N-Acetyl-L-leucine] | 0.972
71 | CC(C)NCC(O)COc1ccc(COCCOC(C)C)cc1 (stereo not drawn) [Bisoprolol fumarate] | 1.06
72 | Nc1nc(=S)c2ncn([C@@H]3O[C@H](CO)[C@@H](O)[C@H]3O)c2[nH]1 [Thioguanosine] | 0.512
73 | O=c1cc(-c2ccc(O)cc2)oc2cc(O)cc(O)c12 [Apigenin] | 0.877
